For the assay, the target named is CHD1-HA fusion protein (CHD1 with C-terminal 3XHA epitope tag) (Drosophila melanogaster) (UniProt Q7KU24). Kind of assay: co-IP; 500 ug protein extract of 0-12 hr embryos with anti-HA affinity gel beads in HEGN100 buffer (10 mM HEPES pH 8.0, 1 mM EDTA, 100 mM NaCl, 0.05% Tween-20, 10% glycerol), 3 hr at 4°; five alternating washes of HEGN100 and HEGN500 (500 mM NaCl); blots with anti-CHD1 and anti-dRtf1; four biological replicates.

The chains behind the UniProt entries cited, without tags or fusion partners.
UniProt Q7KU24: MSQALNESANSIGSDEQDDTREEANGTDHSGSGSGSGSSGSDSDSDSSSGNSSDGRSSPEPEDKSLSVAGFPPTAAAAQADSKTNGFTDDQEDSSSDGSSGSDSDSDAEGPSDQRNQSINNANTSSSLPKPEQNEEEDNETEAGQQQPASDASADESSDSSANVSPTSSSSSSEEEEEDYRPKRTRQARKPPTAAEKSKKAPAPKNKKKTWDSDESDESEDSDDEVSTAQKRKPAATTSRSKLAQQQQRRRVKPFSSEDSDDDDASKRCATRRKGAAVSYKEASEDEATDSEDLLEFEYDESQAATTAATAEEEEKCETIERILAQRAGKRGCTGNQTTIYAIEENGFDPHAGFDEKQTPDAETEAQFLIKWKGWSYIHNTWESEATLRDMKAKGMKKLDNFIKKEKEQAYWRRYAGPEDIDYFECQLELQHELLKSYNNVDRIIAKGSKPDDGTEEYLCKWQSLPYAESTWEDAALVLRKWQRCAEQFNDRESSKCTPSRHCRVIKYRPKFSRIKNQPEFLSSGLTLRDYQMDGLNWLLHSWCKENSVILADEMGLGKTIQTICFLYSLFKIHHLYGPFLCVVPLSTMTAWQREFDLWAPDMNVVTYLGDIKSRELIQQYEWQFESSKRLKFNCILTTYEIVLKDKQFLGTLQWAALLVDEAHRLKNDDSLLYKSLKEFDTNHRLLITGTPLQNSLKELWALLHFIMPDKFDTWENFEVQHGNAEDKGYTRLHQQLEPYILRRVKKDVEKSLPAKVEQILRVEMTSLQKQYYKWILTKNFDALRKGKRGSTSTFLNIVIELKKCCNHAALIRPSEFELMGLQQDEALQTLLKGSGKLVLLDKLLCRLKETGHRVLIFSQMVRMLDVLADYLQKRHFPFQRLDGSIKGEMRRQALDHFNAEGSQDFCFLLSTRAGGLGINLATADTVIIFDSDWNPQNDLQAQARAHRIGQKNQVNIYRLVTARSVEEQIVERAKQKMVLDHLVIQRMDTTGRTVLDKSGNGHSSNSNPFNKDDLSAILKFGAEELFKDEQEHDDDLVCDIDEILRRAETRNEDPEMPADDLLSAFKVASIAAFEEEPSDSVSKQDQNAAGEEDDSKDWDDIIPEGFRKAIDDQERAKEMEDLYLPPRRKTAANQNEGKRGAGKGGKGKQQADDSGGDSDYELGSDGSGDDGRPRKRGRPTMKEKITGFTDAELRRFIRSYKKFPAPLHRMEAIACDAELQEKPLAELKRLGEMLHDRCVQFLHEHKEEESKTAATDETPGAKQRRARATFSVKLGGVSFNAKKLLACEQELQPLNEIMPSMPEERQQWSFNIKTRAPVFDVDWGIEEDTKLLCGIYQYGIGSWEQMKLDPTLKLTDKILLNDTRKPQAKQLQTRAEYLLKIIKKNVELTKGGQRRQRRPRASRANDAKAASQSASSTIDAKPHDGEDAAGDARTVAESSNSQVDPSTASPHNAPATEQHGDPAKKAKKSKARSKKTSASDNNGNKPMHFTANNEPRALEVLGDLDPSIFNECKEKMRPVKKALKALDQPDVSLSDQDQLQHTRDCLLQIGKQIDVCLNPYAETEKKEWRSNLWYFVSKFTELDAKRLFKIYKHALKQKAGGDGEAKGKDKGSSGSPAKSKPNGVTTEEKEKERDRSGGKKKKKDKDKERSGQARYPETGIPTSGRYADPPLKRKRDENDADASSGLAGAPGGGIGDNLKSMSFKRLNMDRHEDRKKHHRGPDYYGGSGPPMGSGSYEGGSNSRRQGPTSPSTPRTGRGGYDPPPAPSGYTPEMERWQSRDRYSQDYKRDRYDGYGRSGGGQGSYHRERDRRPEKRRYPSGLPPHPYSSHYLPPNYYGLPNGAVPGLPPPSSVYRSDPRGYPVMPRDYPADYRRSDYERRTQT

Results are given in words; binding and its absence hold for the method and conditions named. In cells and extracts the contact can be indirect.

Our source for the binding values is article PMC4751545.

B1: RTF1 (protein, UniProt Q9W261 1-775)
chain: MGKRRTQSLIDSNSSDSDSESETNLESDLMSLAKKRKKPQTAAKSSSRSDSDSDWANNKAGAPSSKKKKRQKPSRDSSSSESNWDDDSQDERQPARQSPAQTQQEHKPPEQASQPAQLSEQEEGEVSDSDSDKSKSNSSSSGSDSSSSSSSSDSEFDDGFDDDLMGDDEDRRRLNGLSEKERETEIYKRIEQREIMRTRWEIERKLKLARRGEKNQEKSKNKGERAKKKKEKREKKARKAREAQAPLPTQASTSTLLDVEPKPSNEVRSASPLSTPALNRDAASTSAAVASIMPDDAASSAGVSDYFDHKERSKERKKNVEANKTDDKRSNAMALLKAKREGKAKREEEEAKRMAEKDRDDDKEELDSVSGCKSAVKLKASEIYSDDSGSSDWDEEEKPAGKRSRSNSSKASSESEDEEKAPQRPVFITTREDLNKLRLSRYKMERFVNLPIFESTVLNCFVRISIGNNGQKPVYRVAEIVGVVETGKIYSLGTTRTNRGLRLKHGTQERVFRLEFISNQEFTENEFNKWNEVCQQSHVQMPTIDLIAIKQNDIKKALNYEFKDEDVDKIVEEKNRFRNRPTNYAMKKTCLMKERDAAMLRGDYDIAQDLGQQIDELENRASELDKRRSHTLNLISYINDRNRKKNVEDAEKAILEEARANKGLKISDPFTRRITQPRMGFKGAKKDEDDMQLAPLPPPPPGKKRPNEAGTSSASVRSTDSKDYSLYSLHDFDIDLDVPLPVNTNSVPKPASKPAETVSKRSLNLEDYKKKRGLI
For the molecule B1, the binding result is given as “no binding”.
